One compound from patent publication US20250089559A1, “LIGHT-EMITTING DEVICE” (SEMICONDUCTOR ENERGY LABORATORY CO., LTD., priority 2022, published 2025) can be followed below.

This series in a line: acid dissociation constant pKa of basic skeletons / organic compounds.

Regarding `C1CN=C2NCCCN2C1` [TBD], the pKa was ≥ 14. For the same compound, the “acid dissociation constant pKa” value (measured by adopting water as a solvent) worked out at 14.5.
